The target of the assay is recombinant Glutathion-S-Transferase (GST)-tagged HIV-1 integrase (GST-IN) (HIV-1). Nature of the assay: AlphaScreen or HTRF; GST-IN constant at 80 nM, His-YB-1 or His-TRN titrated in a 1:3 dilution series; glutathione donor and Ni-chelate acceptor beads; 25 mM Tris/HCl pH 7.5, 150 mM NaCl, 1 mM DTT, 1 mM MgCl2, 0.1% BSA, 0.1% Tween 20; 1 h at 4°C, then 1 h at 30°C with beads; both purified.

Results are given in words; binding and its absence hold for the method and conditions named. A result given as binding can be weak or reduced; the word gives no strength. Sequences can lack the tags named with a protein.

B1: 6xHistidine-tagged Transportin-SR2 (His-TRN) (protein, UniProt Q9Y5L0-2 1-923)
chain: MEGAKPTLQLVYQAVQALYHDPDPSGKERASFWLGELQRSVHAWEISDQLLQIRQDVESCYFAAQTMKMKIQTSFYELPTDSHASLRDSLLTHIQNLKDLSPVIVTQLALAIADLALQMPSWKGCVQTLVEKYSNDVTSLPFLLEILTVLPEEVHSRSLRIGANRRTEIIEDLAFYSSTVVSLLMTCVEKAGTDEKMLMKVFRCLGSWFNLGVLDSNFMANNKLLALLFEVLQQDKTSSNLHEAASDCVCSALYAIENVETNLPLAMQLFQGVLTLETAYHMAVAREDLDKVLNYCRIFTELCETFLEKIVCTPGQGLGDLRTLELLLICAGHPQYEVVEISFNFWYRLGEHLYKTNDEVIHGIFKAYIQRLLHALARHCQLEPDHEGVPEETDDFGEFRMRVSDLVKDLIFLIGSMECFAQLYSTLKEGNPPWEVTEAVLFIMAAIAKSVDPENNPTLVEVLEGVVRLPETVHTAVRYTSIELVGEMSEVVDRNPQFLDPVLGYLMKGLCEKPLASAAAKAIHNICSVCRDHMAQHFNGLLEIARSLDSFLLSPEAAVGLLKGTALVLARLPLDKITECLSELCSVQVMALKKLLSQEPSNGISSDPTVFLDRLAVIFRHTNPIVENGQTHPCQKVIQEIWPVLSETLNKHRADNRIVERCCRCLRFAVRCVGKGSAALLQPLVTQMVNVYHVHQHSCFLYLGSILVDEYGMEEGCRQGLLDMLQALCIPTFQLLEQQNGLQNHPDTVDDLFRLATRFIQRSPVTLLRSQVVIPILQWAIASTTLDHRDANCSVMRFLRDLIHTGVANDHEEDFELRKELIGQVMNQLGQQLVSQLLHTCCFCLPPYTLPDVAEVLWEIMQVDRPTFCRWLENSLKGLPKETTVGAVTVTHKQLTDFHKQVTSAEECKQVCWALRDFTRLFR
Turning to B1, the binding entry is “binds”.
